# Reference: PMC7819943, “Rice protein-binding microarrays: a tool to detect cis-acting elements near promoter regions in rice”
# The other results are listed elsewhere or left out.
# Target: T1, OsSMF1 (Oryza sativa, UniProt Q6ZLB0 1-436)
# T1 sequence: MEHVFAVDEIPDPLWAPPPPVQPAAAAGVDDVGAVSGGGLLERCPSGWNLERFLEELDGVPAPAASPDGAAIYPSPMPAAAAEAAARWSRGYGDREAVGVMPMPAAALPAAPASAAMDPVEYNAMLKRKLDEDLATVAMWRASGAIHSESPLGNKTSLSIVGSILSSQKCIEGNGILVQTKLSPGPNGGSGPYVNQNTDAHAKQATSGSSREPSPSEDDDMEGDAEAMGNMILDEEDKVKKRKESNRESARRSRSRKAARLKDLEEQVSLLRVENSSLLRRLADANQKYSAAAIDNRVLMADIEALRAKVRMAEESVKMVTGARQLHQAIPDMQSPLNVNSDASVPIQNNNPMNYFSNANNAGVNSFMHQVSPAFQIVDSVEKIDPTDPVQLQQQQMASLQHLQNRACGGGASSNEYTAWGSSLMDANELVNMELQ
# Assay: protein-binding microarray (RPBM); PBS, 2% BSA, 51.3 ng/ul salmon testes DNA, 50 uM zinc acetate, 200 nM TF, 25 C, 1 h; high values mean tight binding
# Details: protein: recombinant; tags: N-terminal polyhistidine and DsRed monomer fusion (pET32a); chain copies: 2; label: CyDye5-dUTP incorporated in the synthesized complementary strand; 3' TTTTT single-stranded linker to array surface; dsDNA, one strand shown
# In short: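 Polyhistidine-tagged DsRed fusions of transcription factors, joined at the N-terminus, were expressed in E. coli BL21-CodonPlus and isolated on Ni–NTA. They were incubated at 200 nM for 1 h at 25 °C on a custom Agilent array, double-stranded and BSA-blocked, in PBS with 2% BSA, salmon testes DNA and 50 µM zinc acetate. The binding signal is per-feature fluorescence intensity (arbitrary units) read on an Axon 4000B scanner after washing.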
row,Sequence,binding signal
1,AGGTTCGCCTACCGGTTGCTGTTCGAGCGGGAGGTGTCAGCGGAGTCACCTAGTGCAG,3360 fluorescence intensity (a.u.)
2,TGTTGACATGTTGACGATATGTGGCCAGATCGTCTCGACACGGAGTCACCTAGTGCAG,3590 fluorescence intensity (a.u.)
3,GCCACTGTGAGGCGCATAACATGGCTGCGCGCCTCGCTTGCGGAGTCACCTAGTGCAG,3720 fluorescence intensity (a.u.)
4,ACTGAGGCGCGGGGTATTACTGCATCACGCTTCGGCTTCCCGGAGTCACCTAGTGCAG,22800 fluorescence intensity (a.u.)
5,ATATGTTGTCCAAGTCATCGTTGATTTTGAGTTGTGCTGTCGGAGTCACCTAGTGCAG,9580 fluorescence intensity (a.u.)
6,TTGCGATGCTGCTACGGGATAGTGACGGCTGTTTACAATCCGGAGTCACCTAGTGCAG,29600 fluorescence intensity (a.u.)
7,CTTGAAGTCTATGCCACATCACATTCCTGGTGTAAACGCACGGAGTCACCTAGTGCAG,8230 fluorescence intensity (a.u.)
8,CCAATCACCGCCCTCCACGTGGCAAATCTCGCTTCGACTCCGGAGTCACCTAGTGCAG,15400 fluorescence intensity (a.u.)
9,CGAGCTACTCAAACACTTTCACAGGCAGTGGCAGTGGAACCGGAGTCACCTAGTGCAG,3710 fluorescence intensity (a.u.)
10,GTCAATGCTGAAGAATAAACAACAAATGCTTGGCCATAGCCGGAGTCACCTAGTGCAG,3680 fluorescence intensity (a.u.)
11,AATATTGCATTTGCACTCTTCCACGAGGGCAACTATTGTTCGGAGTCACCTAGTGCAG,4690 fluorescence intensity (a.u.)
12,CCTCTTGCTAAATACGCTTCGTACGCGTGGTCTTCGGTAGCGGAGTCACCTAGTGCAG,4050 fluorescence intensity (a.u.)
13,ACCATCTTTCTCTTTACCATGATCATTTTAGCATCTTTGACGGAGTCACCTAGTGCAG,3160 fluorescence intensity (a.u.)
14,ATCCATGAGCTGTTGCTGCAAATCCTCGCTATTCTTTCCGCGGAGTCACCTAGTGCAG,3340 fluorescence intensity (a.u.)
15,AGGCGTAGCTCAGTGCTTATGTCAGCAGGGTCTGAATAGGCGGAGTCACCTAGTGCAG,5390 fluorescence intensity (a.u.)
16,TACCATGATATTATCCTTGCTGCCACATCCTCGTTTCGTCCGGAGTCACCTAGTGCAG,3660 fluorescence intensity (a.u.)
17,ATCATCACTCACCGACACCGTGGGTCCCACCGAACTCCCGCGGAGTCACCTAGTGCAG,3180 fluorescence intensity (a.u.)
18,GGAAAACATACACCGAAGGTCCTTGGACTTGTCATCGAGTCGGAGTCACCTAGTGCAG,3190 fluorescence intensity (a.u.)
19,CGGGGCTAGGCCGCCGGTGGGGAGGCTTCGGGAGGTGGGGCGGAGTCACCTAGTGCAG,3210 fluorescence intensity (a.u.)
20,AATTCAGTCACCAACTGTTCGACGGATTGCTAGTTTGCCACGGAGTCACCTAGTGCAG,3680 fluorescence intensity (a.u.)
21,AAACCATCAAATCTGATTTACCCGCTTGAATGGATGGCAACGGAGTCACCTAGTGCAG,3680 fluorescence intensity (a.u.)
22,TATACGACATATACAAACTTTGTATATGACGTAGACAAAACGGAGTCACCTAGTGCAG,5140 fluorescence intensity (a.u.)
23,GGAAGAAAGACGAGTGGTTGCCACGTGGCACGCCGGGTCCCGGAGTCACCTAGTGCAG,16100 fluorescence intensity (a.u.)
24,AACAATTTTGGTCAATTCAGAATAGCTGACTGTGTATTGTCGGAGTCACCTAGTGCAG,7340 fluorescence intensity (a.u.)
25,CTCATTCTGCGTGCCCTTACTTAATCCTCATCCTCATTACCGGAGTCACCTAGTGCAG,3330 fluorescence intensity (a.u.)
26,ACTGCGCGTGGGCGGGCGTGACGTGCAGCTCCCGCGGCGCCGGAGTCACCTAGTGCAG,7280 fluorescence intensity (a.u.)
27,TTTCTTTCTTTCTGCATGATTCAGTTTTCCCGTTGTTGATCGGAGTCACCTAGTGCAG,3600 fluorescence intensity (a.u.)

# Given with tabs: part of the list above.
row	Sequence	binding signal
12	CCTCTTGCTAAATACGCTTCGTACGCGTGGTCTTCGGTAGCGGAGTCACCTAGTGCAG	4050 fluorescence intensity (a.u.)
13	ACCATCTTTCTCTTTACCATGATCATTTTAGCATCTTTGACGGAGTCACCTAGTGCAG	3160 fluorescence intensity (a.u.)

# (continued)

row,Sequence,binding signal
1,TGACTCAGTATCGATCTGACGTGGCGCTTACGTGGCAATTCGGAGTCACCTAGTGCAG,48000 fluorescence intensity (a.u.)
2,TGTCGGAGCCCGCGAGGATGTCCTTCTTCTTCTTCTCCTCCGGAGTCACCTAGTGCAG,3360 fluorescence intensity (a.u.)
3,CGGAGCGTGCGTCGTCGTCACCGGCGATCCCCACCCACCTCGGAGTCACCTAGTGCAG,4600 fluorescence intensity (a.u.)
4,CACTGCCGCCGCCCAGCCCTACAGCAGCTGCCACGTGCACCGGAGTCACCTAGTGCAG,9530 fluorescence intensity (a.u.)
5,ACAAACCGAAAATAGGTTATTAATATTGCTGCAAACTGATCGGAGTCACCTAGTGCAG,3190 fluorescence intensity (a.u.)
6,GAATTATTTGGTCAGTGTCACTTGCTGCCAGGACCCAACACGGAGTCACCTAGTGCAG,3910 fluorescence intensity (a.u.)
7,TACTAGTGTGGACATGTTCCCCTTTTCAGGAAGATGGCAGCGGAGTCACCTAGTGCAG,40300 fluorescence intensity (a.u.)
8,CGCTCATGAAGCTCCTTCCCTACGCGCGCTCGCCGAATCGCGGAGTCACCTAGTGCAG,44000 fluorescence intensity (a.u.)
9,AGCACCCACGTGGCGAAATCCTAACCGTCCACGTGGATCCCGGAGTCACCTAGTGCAG,17600 fluorescence intensity (a.u.)
10,AACCCTGTGGCCACTGCCAAGAAGCCGGTGGTGGTGGTGGCGGAGTCACCTAGTGCAG,24800 fluorescence intensity (a.u.)
11,TACTGGATCTCTGCTTCTGACCAAAATGTTCCGCATTGAACGGAGTCACCTAGTGCAG,35300 fluorescence intensity (a.u.)
12,GGGGAGCACCTGGGCCGGTGGATGAGGCTTAGCATGGATCCGGAGTCACCTAGTGCAG,3200 fluorescence intensity (a.u.)
13,GCTCGATCTCCGACGTCATGCGCCGCTCGCTGCCCGTCGACGGAGTCACCTAGTGCAG,3820 fluorescence intensity (a.u.)
14,GAGTTTGATAGCTTAGCAGAAATAGTTTTGCTGACGTGGCCGGAGTCACCTAGTGCAG,40700 fluorescence intensity (a.u.)
15,ATTCCAGCCCGGCCCGAATACGTGGATGGGCCAAAATTGGCGGAGTCACCTAGTGCAG,3430 fluorescence intensity (a.u.)
16,ACAGTTGTTGGAAGTGTAAGACTGACATGGCCAACGATCCCGGAGTCACCTAGTGCAG,4190 fluorescence intensity (a.u.)
17,ACCAGCACTTCTACAACCTCAATGACACAGCCATGCTCAGCGGAGTCACCTAGTGCAG,3560 fluorescence intensity (a.u.)
18,GCAACCACAACCACCAACGACGCCGATCGATCGAGCCAACCGGAGTCACCTAGTGCAG,3340 fluorescence intensity (a.u.)
19,AGAGACCGAGTTCCCAAATCCCAACGGCCCAACCTGATCCCGGAGTCACCTAGTGCAG,4110 fluorescence intensity (a.u.)
20,ACAGCGATGGCGGCGTCGAGAGATCTCCGGCTCACCACCGCGGAGTCACCTAGTGCAG,3320 fluorescence intensity (a.u.)
21,ATAGAGATTTATTTTATCATAGTTTATTTTCAAGCCTTATCGGAGTCACCTAGTGCAG,19800 fluorescence intensity (a.u.)
22,AAGAAGTACCACTCAACGATACATTTAGGAGCGTCAAGATCGGAGTCACCTAGTGCAG,3290 fluorescence intensity (a.u.)
23,TAAGCTAATGCTAACAACCGCACCACGTGTTCGGCCCGGACGGAGTCACCTAGTGCAG,6030 fluorescence intensity (a.u.)
24,GCGTCCCGGTAGCCGCCAGCTCAGCGCGCACGCAGCCATCCGGAGTCACCTAGTGCAG,5430 fluorescence intensity (a.u.)
25,CCATGGGAGCGGCTGCCGTGGACGCGAACGGCATCTCCTTCGGAGTCACCTAGTGCAG,3160 fluorescence intensity (a.u.)
26,TATGGTGTGCAGATGGATACCTGATCTTATCTAATATTGTCGGAGTCACCTAGTGCAG,3190 fluorescence intensity (a.u.)
27,GTGGTGGTAGTAGTAGTAGTAGTACCGTACAAGCCGCCCTCGGAGTCACCTAGTGCAG,23400 fluorescence intensity (a.u.)
